Here are results for one substance from article doi:10.1101/2021.12.14.472415.

This assay concerns the target T1, DSAD1 (DSR Anti Defense 1) with C-terminal TwinStrep tag (Bacillus phage SPbeta) (UniProt Q796A8).
T1 sequence: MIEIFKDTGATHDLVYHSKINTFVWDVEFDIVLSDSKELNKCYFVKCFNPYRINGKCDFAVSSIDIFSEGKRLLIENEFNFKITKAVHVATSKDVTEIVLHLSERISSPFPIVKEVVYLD
The assay can be described thus: pull-down.

No constants are given. Whether binding was seen depends on the method and setting. Binding seen in cells or lysates may run through a third protein. Binding can be weak; no strength is given. Tags and fused reporters may be left off the sequences shown.

For the substance “DSR2 (H171A) from Bacillus subtilis 29R (enzyme)”, the binding result is “binds”.
